These are yes or no findings as the source states them, for the method shown. Binding calls can cover weak binding; strength is not graded here.

By UniProt entry, the sequences of proteins in these tests, tags left out. Where a name states a change or a piece, a line headed by the entry shows the natural chain unless it says otherwise. Residues count along the entry.
UniProt P00742: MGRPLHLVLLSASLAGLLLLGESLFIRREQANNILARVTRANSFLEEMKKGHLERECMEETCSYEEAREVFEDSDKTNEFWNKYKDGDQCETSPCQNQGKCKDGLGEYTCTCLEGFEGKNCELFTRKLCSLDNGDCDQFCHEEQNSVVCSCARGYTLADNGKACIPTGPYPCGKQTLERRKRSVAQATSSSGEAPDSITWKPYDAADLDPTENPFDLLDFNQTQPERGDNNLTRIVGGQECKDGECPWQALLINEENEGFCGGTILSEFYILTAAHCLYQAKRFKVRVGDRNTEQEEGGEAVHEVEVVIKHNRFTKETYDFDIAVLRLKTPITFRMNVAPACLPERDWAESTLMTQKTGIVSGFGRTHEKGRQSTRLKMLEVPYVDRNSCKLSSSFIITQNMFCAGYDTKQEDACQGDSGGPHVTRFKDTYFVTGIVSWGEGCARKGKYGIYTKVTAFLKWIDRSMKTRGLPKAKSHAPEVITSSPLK
UniProt P10646, residues 29-304: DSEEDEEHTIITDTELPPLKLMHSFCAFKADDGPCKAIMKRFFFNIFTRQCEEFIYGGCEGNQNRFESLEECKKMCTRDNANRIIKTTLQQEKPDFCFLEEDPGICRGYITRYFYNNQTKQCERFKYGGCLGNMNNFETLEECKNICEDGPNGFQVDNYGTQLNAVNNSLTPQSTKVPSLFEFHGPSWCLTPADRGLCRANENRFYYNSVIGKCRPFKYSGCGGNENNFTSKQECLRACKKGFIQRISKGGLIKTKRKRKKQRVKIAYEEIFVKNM

Test [1] has as its target human factor Xa (human) (UniProt P00742). The test is described as follows: TFPI activity and human factor Xa binding assay on PMA-activated endothelial cells (unbound Xa read against an rTFPI standard curve).
The target is the same in test [2]. Description: TFPI activity and human factor Xa binding assay on PMA-activated endothelial cells.

For “human tissue factor pathway inhibitor (TFPI) transgene product on the surface of PMA-activated Pig 2.0 (3KO+9TG) and Pig 3.0 (3KO+9TG) PUVECs (from UniProt P10646 29-304)”, the binding entry in the test with human factor Xa (human) [1] and in the test with human factor Xa (human) [2] was “binds” in each case.

For the origin of these results see patent US20220267805A1.
